These are yes or no findings as the source states them, for the method shown. Binding seen in cells or lysates may run through a third protein. These calls come from enrichment with a bait or labelling near it, and not all partners need be listed.
Key:
[1] = molecular target: non-muscle myosin heavy chain IIA (human) (human (endogenous in human conditionally immortalized podocytes)) (UniProt P35579); assay: affinity purification with mass spectrometry; the same approach repeated with human conditionally immortalized podocytes cultured at growth permissive and growth restrictive conditions; cross-linked lysate, anti-NMMHCIIA antibody columns, LC/MS
[2] = molecular target: non-muscle myosin heavy chain IIA (mouse) (mouse (endogenous in murine conditionally immortalized podocytes)) (UniProt Q8VDD5); assay: affinity purification with mass spectrometry; murine conditionally immortalized podocytes, one week at growth restrictive conditions; total lysate (T-Per) cross-linked in paraformaldehyde; columns of rabbit polyclonal antibody against the C-terminal dodecapeptide of NMMHCIIA; tryptic peptides by LC/MS on an LTQ ion trap, searched against the human nonredundant database

Protein sequences, listed by entry. Tags and fused reporters are not part of them.
UniProt P35579: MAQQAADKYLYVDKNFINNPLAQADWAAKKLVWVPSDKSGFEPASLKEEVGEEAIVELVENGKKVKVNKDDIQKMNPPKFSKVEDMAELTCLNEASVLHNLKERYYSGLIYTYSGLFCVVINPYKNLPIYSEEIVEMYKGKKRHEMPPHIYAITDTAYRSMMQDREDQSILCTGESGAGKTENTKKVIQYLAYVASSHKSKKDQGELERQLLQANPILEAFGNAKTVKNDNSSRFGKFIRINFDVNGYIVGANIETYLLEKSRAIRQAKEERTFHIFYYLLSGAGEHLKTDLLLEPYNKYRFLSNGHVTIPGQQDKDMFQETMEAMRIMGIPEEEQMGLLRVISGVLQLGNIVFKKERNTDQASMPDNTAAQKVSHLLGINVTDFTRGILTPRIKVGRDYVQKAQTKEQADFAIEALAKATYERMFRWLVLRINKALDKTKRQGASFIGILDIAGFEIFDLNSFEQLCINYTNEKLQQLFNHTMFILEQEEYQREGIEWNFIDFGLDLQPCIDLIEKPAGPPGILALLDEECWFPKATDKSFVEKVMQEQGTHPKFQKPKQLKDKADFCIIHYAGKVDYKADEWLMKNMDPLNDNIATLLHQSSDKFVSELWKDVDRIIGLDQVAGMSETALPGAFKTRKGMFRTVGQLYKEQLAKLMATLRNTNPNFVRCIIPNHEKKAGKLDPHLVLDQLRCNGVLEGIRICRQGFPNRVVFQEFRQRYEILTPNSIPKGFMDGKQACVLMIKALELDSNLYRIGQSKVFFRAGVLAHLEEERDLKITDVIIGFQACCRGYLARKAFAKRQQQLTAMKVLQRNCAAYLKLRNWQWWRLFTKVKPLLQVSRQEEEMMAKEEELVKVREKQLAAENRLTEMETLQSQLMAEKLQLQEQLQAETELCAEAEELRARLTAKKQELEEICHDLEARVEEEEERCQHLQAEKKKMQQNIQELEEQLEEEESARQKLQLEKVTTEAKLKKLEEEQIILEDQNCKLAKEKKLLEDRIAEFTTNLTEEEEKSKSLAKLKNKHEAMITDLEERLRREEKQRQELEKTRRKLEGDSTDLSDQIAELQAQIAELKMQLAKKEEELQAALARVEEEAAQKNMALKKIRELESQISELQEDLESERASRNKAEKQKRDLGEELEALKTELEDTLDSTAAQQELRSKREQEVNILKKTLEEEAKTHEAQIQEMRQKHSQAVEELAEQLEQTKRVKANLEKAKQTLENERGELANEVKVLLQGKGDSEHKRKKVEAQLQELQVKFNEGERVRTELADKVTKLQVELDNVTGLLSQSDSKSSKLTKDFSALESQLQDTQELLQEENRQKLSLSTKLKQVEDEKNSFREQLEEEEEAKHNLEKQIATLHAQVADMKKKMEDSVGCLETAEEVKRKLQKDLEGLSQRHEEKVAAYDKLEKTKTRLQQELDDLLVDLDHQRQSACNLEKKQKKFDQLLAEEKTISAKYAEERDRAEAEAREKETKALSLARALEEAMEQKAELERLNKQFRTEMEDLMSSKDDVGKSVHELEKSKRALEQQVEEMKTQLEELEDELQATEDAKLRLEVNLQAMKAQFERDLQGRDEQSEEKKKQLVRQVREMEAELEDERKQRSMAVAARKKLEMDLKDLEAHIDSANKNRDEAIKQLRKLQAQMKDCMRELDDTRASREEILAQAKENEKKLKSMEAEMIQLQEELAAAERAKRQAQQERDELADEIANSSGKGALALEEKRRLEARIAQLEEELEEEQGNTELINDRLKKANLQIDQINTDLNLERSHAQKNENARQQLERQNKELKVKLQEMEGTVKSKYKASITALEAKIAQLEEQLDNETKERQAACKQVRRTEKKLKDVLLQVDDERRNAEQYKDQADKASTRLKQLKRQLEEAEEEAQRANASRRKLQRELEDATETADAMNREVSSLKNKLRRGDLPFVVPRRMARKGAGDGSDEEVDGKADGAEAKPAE
UniProt Q8VDD5: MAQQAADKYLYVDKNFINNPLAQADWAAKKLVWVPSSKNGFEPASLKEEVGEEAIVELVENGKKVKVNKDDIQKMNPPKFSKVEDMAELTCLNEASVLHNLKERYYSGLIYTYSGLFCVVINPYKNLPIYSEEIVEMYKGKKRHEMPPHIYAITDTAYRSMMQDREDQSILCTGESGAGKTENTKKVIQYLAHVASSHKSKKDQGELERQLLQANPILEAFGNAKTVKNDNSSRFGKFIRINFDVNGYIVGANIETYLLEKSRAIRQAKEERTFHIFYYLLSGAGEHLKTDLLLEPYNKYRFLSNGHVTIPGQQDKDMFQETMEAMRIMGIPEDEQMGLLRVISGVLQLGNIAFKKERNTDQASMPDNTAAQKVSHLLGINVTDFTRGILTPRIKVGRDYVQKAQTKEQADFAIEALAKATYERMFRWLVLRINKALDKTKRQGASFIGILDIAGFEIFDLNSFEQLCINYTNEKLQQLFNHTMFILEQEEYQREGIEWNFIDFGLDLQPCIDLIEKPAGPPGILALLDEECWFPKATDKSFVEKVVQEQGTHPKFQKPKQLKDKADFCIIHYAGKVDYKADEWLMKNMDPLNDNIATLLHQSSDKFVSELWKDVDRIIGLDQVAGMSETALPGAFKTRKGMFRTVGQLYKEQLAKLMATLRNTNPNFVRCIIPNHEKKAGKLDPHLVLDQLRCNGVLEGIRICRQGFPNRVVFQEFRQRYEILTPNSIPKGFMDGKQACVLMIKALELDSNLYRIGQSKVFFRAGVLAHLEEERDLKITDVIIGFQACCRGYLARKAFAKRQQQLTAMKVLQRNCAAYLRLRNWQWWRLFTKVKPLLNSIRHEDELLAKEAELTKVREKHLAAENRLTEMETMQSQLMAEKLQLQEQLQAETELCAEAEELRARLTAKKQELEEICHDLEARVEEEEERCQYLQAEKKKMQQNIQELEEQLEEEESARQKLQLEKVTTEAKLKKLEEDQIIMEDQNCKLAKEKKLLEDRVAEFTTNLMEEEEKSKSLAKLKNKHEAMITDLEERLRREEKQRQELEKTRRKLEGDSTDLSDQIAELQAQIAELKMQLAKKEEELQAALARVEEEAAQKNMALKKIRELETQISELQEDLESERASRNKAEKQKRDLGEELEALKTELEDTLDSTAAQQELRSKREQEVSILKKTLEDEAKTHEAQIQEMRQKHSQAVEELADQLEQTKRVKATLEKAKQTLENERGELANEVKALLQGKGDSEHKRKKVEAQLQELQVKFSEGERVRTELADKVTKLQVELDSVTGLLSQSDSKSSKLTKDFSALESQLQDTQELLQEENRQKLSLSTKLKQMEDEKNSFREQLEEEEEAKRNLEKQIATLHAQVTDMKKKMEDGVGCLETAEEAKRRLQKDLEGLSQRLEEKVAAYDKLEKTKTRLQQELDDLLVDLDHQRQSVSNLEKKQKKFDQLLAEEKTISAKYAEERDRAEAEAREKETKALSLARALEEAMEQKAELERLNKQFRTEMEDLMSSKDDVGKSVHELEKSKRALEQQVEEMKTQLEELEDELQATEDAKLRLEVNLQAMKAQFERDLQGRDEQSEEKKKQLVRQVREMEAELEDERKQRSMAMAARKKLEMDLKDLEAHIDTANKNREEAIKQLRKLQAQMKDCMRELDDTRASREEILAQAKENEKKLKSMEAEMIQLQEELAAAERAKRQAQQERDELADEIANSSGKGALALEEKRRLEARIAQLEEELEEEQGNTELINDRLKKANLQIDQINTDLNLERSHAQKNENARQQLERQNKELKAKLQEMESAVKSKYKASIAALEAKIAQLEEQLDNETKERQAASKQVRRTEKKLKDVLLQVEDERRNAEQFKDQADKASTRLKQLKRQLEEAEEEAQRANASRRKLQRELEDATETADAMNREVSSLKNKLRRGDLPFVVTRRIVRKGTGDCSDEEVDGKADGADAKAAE
UniProt Q7Z406: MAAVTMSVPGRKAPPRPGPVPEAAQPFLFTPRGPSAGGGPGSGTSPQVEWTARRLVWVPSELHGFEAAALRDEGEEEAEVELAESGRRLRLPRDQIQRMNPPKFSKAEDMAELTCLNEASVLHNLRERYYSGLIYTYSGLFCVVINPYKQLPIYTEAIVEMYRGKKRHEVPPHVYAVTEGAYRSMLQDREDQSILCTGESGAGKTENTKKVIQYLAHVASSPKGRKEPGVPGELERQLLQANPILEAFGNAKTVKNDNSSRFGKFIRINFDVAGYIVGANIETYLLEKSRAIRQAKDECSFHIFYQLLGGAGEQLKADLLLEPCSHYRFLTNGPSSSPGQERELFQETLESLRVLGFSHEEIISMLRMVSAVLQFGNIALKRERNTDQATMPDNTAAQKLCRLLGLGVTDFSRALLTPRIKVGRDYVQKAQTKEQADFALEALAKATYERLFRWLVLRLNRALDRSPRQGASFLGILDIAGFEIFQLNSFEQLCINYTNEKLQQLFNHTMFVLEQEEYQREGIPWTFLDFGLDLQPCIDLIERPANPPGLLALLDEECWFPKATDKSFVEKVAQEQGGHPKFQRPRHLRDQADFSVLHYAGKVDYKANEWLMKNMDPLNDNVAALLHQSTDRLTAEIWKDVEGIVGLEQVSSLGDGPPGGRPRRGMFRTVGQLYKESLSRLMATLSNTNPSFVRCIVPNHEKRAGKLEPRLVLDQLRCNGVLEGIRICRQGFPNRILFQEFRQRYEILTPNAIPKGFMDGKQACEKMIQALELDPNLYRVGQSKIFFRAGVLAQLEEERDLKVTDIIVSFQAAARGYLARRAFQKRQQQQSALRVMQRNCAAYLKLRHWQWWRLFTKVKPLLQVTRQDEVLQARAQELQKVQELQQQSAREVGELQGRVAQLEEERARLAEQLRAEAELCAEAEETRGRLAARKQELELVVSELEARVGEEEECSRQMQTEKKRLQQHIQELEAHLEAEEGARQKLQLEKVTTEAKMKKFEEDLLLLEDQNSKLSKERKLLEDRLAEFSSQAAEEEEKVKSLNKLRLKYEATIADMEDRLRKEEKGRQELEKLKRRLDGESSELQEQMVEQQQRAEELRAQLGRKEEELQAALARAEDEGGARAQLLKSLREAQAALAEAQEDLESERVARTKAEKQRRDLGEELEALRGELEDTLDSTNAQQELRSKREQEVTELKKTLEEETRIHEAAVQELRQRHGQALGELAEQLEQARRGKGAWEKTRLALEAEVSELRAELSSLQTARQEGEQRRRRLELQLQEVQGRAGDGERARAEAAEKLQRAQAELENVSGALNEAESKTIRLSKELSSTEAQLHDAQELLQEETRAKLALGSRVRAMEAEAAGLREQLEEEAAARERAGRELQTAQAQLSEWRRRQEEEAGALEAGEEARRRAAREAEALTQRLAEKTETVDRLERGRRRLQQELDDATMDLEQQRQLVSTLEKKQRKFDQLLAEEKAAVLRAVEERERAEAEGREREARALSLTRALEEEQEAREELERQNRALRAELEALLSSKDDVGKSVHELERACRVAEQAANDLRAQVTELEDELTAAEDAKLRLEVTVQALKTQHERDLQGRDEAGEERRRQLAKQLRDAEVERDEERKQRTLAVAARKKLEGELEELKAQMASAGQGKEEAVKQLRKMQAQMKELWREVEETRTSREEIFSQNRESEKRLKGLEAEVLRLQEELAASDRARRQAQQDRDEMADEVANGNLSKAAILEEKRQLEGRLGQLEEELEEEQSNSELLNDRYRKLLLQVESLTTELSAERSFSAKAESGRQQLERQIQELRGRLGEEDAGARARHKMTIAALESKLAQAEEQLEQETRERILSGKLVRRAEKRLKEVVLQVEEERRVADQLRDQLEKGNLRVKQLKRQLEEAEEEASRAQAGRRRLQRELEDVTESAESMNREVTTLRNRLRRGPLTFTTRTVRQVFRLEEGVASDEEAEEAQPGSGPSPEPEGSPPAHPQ
UniProt P26043: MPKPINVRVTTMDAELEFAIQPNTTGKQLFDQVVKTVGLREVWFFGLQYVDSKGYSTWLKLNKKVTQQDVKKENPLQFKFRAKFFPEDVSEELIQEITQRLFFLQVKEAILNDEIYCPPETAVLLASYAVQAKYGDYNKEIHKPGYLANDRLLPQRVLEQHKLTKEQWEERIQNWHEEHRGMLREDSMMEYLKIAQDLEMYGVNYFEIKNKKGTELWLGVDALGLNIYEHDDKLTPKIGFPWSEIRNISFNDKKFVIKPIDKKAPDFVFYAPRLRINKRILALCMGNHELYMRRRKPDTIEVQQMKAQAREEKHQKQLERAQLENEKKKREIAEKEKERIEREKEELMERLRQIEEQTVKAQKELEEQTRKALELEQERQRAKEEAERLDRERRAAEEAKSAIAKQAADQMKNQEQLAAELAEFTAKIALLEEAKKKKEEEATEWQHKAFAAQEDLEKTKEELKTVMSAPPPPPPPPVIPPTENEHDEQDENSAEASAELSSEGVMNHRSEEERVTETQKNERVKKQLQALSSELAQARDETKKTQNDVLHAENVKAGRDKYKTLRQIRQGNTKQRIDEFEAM

Molecule	binding [1]	binding [2]
FLNC (from UniProt Q14315 1-2725)	binds	–
radixin (human) (from UniProt P35241 1-583)	binds	–
NMMHCIIC (mouse) (from UniProt Q6URW6 1-2000)	–	binds
NMMHCIIB (mouse) (from UniProt Q61879 1-1976)	–	binds
GPI (from UniProt P06744 1-558)	binds	–
TPM2 (from UniProt P07951 1-284)	binds	–
NMMHCIIB (human) (from UniProt P35580 1-1976)	binds	–
moesin (human) (from UniProt P26038 1-577)	binds	–
NMMHCIIC (human) (from UniProt Q7Z406 1-1995)	binds	–
NUMA1 (from UniProt Q14980 1-2115)	binds	–
moesin (mouse) (from UniProt P26041 1-577)	–	binds
PML (from UniProt P29590 1-882)	binds	–
radixin (mouse) (from UniProt P26043 1-583)	–	binds
LPP (protein, UniProt Q93052 1-612) MSHPSWLPPKSTGEPLGHVPARMETTHSFGNPSISVSTQQPPKKFAPVVAPKPKYNPYKQPGGEGDFLPPPPPPLDDSSALPSISGNFPPPPPLDEEAFKVQGNPGGKTLEERRSSLDAEIDSLTSILADLECSSPYKPRPPQSSTGSTASPPVSTPVTGHKRMVIPNQPPLTATKKSTLKPQPAPQAGPIPVAPIGTLKPQPQPVPASYTTASTSSRPTFNVQVKSAQPSPHYMAAPSSGQIYGSGPQGYNTQPVPVSGQCPPPSTRGGMDYAYIPPPGLQPEPGYGYAPNQGRYYEGYYAAGPGYGGRNDSDPTYGQQGHPNTWKREPGYTPPGAGNQNPPGMYPVTGPKKTYITDPVSAPCAPPLQPKGGHSGQLGPSSVAPSFRPEDELEHLTKKMLYDMENPPADEYFGRCARCGENVVGEGTGCTAMDQVFHVDCFTCIICNNKLRGQPFYAVEKKAYCEPCYINTLEQCNVCSKPIMERILRATGKAYHPHCFTCVMCHRSLDGIPFTVDAGGLIHCIEDFHKKFAPRCSVCKEPIMPAPGQEETVRIVALDRDFHVHCYRCEDCGGLLSEGDNQGCYPLDGHILCKTCNSARIRVLTAKASTDL	binds	–
HK1 (protein, UniProt P19367 1-917) MIAAQLLAYYFTELKDDQVKKIDKYLYAMRLSDETLIDIMTRFRKEMKNGLSRDFNPTATVKMLPTFVRSIPDGSEKGDFIALDLGGSSFRILRVQVNHEKNQNVHMESEVYDTPENIVHGSGSQLFDHVAECLGDFMEKRKIKDKKLPVGFTFSFPCQQSKIDEAILITWTKRFKASGVEGADVVKLLNKAIKKRGDYDANIVAVVNDTVGTMMTCGYDDQHCEVGLIIGTGTNACYMEELRHIDLVEGDEGRMCINTEWGAFGDDGSLEDIRTEFDREIDRGSLNPGKQLFEKMVSGMYLGELVRLILVKMAKEGLLFEGRITPELLTRGKFNTSDVSAIEKNKEGLHNAKEILTRLGVEPSDDDCVSVQHVCTIVSFRSANLVAATLGAILNRLRDNKGTPRLRTTVGVDGSLYKTHPQYSRRFHKTLRRLVPDSDVRFLLSESGSGKGAAMVTAVAYRLAEQHRQIEETLAHFHLTKDMLLEVKKRMRAEMELGLRKQTHNNAVVKMLPSFVRRTPDGTENGDFLALDLGGTNFRVLLVKIRSGKKRTVEMHNKIYAIPIEIMQGTGEELFDHIVSCISDFLDYMGIKGPRMPLGFTFSFPCQQTSLDAGILITWTKGFKATDCVGHDVVTLLRDAIKRREEFDLDVVAVVNDTVGTMMTCAYEEPTCEVGLIVGTGSNACYMEEMKNVEMVEGDQGQMCINMEWGAFGDNGCLDDIRTHYDRLVDEYSLNAGKQRYEKMISGMYLGEIVRNILIDFTKKGFLFRGQISETLKTRGIFETKFLSQIESDRLALLQVRAILQQLGLNSTCDDSILVKTVCGVVSRRAAQLCGAGMAAVVDKIRENRGLDRLNVTVGVDGTLYKLHPHFSRIMHQTVKELSPKCNVSFLLSEDGSGKGAALITAVGVRLRTEASS	binds	–
GSS (protein, UniProt P48637 1-474) MATNWGSLLQDKQQLEELARQAVDRALAEGVLLRTSQEPTSSEVVSYAPFTLFPSLVPSALLEQAYAVQMDFNLLVDAVSQNAAFLEQTLSSTIKQDDFTARLFDIHKQVLKEGIAQTVFLGLNRSDYMFQRSADGSPALKQIEINTISASFGGLASRTPAVHRHVLSVLSKTKEAGKILSNNPSKGLALGIAKAWELYGSPNALVLLIAQEKERNIFDQRAIENELLARNIHVIRRTFEDISEKGSLDQDRRLFVDGQEIAVVYFRDGYMPRQYSLQNWEARLLLERSHAAKCPDIATQLAGTKKVQQELSRPGMLEMLLPGQPEAVARLRATFAGLYSLDVGEEGDQAIAEALAAPSRFVLKPQREGGGNNLYGEEMVQALKQLKDSEERASYILMEKIEPEPFENCLLRPGSPARVVQCISELGIFGVYVRQEKTLVMNKHVGHLLRTKAIEHADGGVAAGVAVLDNPYPV	binds	–
